From the supplement of paper PMC4604168 (melanoma cell lines)
This is one part of the list. Single values are uncertain, as repeats are few or missing.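 The apoptosis fraction was the count of cleaved-PARP antibody-stained nuclei relative to all DNA-stained nuclei, imaged in 1,536-well plates. Screening doses were set so most cells survived, and baseline and induced cleaved-PARP levels vary greatly across cell lines.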

Tested on: MZ2-MEL
Assay: cleaved PARP positive nuclei fraction relative to DMSO control; melanoma cells; higher = more apoptosis
Conditions: library dose: low library concentration; 72 h

In order of rising “cleaved PARP positive nuclei fraction” value:
1. COc1cc2c(Oc3ccc4[nH]c(C)cc4c3F)ncnc2cc1OCCCN1CCCC1 [cediranib] + CCN(CC)CCCCNc1ncc2cc(-c3cc(OC)cc(OC)c3)c(NC(=O)NC(C)(C)C)nc2n1 [PD173074] (first compound 0.4 µM, partner dose 0.1 µM)  28%
2. COc1ccc(-c2ccc3c(N4CCOCC4)nc(N4C[C@@H](C)O[C@@H](C)C4)nc3n2)cc1CO + CC(C)CCN1c2nc(Nc3cc(F)c(O)c(F)c3)ncc2N(C)C(=O)C1C [BID1870] (first compound 0.02 µM, partner dose 0.2 µM)  29.2%
3. O=C1NC(=O)/C(=C/c2ccc(-c3ccc(F)cc3O)o2)S1 + COc1cc(N2CCC(N3CCN(C)CC3)CC2)ccc1Nc1ncc(Cl)c(Nc2ccccc2S(=O)(=O)C(C)C)n1 [NVP-TAE684] (first compound 1 µM, partner dose 0.08 µM)  35.1%
4. O=S(=O)(c1ccccc1)N(CC(F)(F)F)c1ccc(C(O)(C(F)(F)F)C(F)(F)F)cc1 + CC(C)CCN1c2nc(Nc3cc(F)c(O)c(F)c3)ncc2N(C)C(=O)C1C [BID1870] (first compound 1.4 µM, partner dose 0.2 µM)  35.5%
5. NCC(=O)Nc1ccc(-n2nc(C(F)(F)F)cc2-c2ccc3c(ccc4ccccc43)c2)cc1 + Cn1cc(/C=C2\C(=O)Nc3cccnc32)c2ccccc21 [GW441756] (first compound 1 µM, partner dose 0.4 µM)  49.1%
6. O=S(=O)(c1ccccc1)N(CC(F)(F)F)c1ccc(C(O)(C(F)(F)F)C(F)(F)F)cc1 + Oc1cc(-c2nc(-c3ccccc3)[nH]c2-c2ccncc2)ccc1Cl [L779450] (first compound 1.4 µM, partner dose 0.2 µM)  54.1%
7. COc1cc2c(Oc3ccc4[nH]c(C)cc4c3F)ncnc2cc1OCCCN1CCCC1 [cediranib] + Oc1cc(-c2nc(-c3ccccc3)[nH]c2-c2ccncc2)ccc1Cl [L779450] (first compound 0.4 µM, partner dose 0.2 µM)  54.9%
8. O=S(=O)(c1ccccc1)N(CC(F)(F)F)c1ccc(C(O)(C(F)(F)F)C(F)(F)F)cc1 + Cn1cc(/C=C2\C(=O)Nc3cccnc32)c2ccccc21 [GW441756] (first compound 1.4 µM, partner dose 0.4 µM)  60%
9. Oc1cc(-c2nc(-c3ccccc3)[nH]c2-c2ccncc2)ccc1Cl + Cn1cc(/C=C2\C(=O)Nc3cccnc32)c2ccccc21 [GW441756] (first compound 0.2 µM, partner dose 0.4 µM)  63.3%
10. COc1cc2c(Oc3ccc4[nH]c(C)cc4c3F)ncnc2cc1OCCCN1CCCC1 [cediranib] + O=C(O)C(=O)Nc1sc2c(c1C(=O)O)CCNC2 [TCS401] (first compound 0.4 µM, partner dose 1.66667 µM)  69%
11. COc1ccc(COc2ccc(Cc3cnc(N)nc3N)cc2OC)cc1 + O=C1NC(=O)/C(=C/c2ccc(-c3ccc(F)cc3O)o2)S1 [AS252424] (first compound 1 µM, partner dose 1 µM)  79.7%
12. Oc1cc(-c2nc(-c3ccccc3)[nH]c2-c2ccncc2)ccc1Cl + c1cc(-c2cnn3cc(-c4ccc(OCCN5CCCCC5)cc4)cnc23)ccn1 [Dorsomorphin] (first compound 0.2 µM, partner dose 0.4 µM)  81.8%
13. CCN(CC)CCCCNc1ncc2cc(-c3cc(OC)cc(OC)c3)c(NC(=O)NC(C)(C)C)nc2n1 + Cc1cc([N+](=O)[O-])ccc1NS(=O)(=O)c1cc(Cl)ccc1Cl [FH535] (first compound 0.1 µM, partner dose 1 µM)  84.5%
14. CCN(CC)CCCCNc1ncc2cc(-c3cc(OC)cc(OC)c3)c(NC(=O)NC(C)(C)C)nc2n1 + O=c1cc(-c2cccc3c2Sc2ccccc2S3)oc(N2CCOCC2)c1 [KU55933] (first compound 0.1 µM, partner dose 1 µM)  87.9%
15. CN(NC(=O)CC(=O)NN(C)C(=S)c1ccccc1)C(=S)c1ccccc1 + COC(=O)c1sccc1S(=O)(=O)Nc1ccc(Nc2ccccc2)cc1OC [GSK0660] (first compound 0.006 µM, partner dose 1 µM)  89.5%
16. O=C(O)c1ccc(-c2c[nH]c3ncc(-c4ccccc4)cc23)cc1C1CCCC1 + Cn1cc(/C=C2\C(=O)Nc3cccnc32)c2ccccc21 [GW441756] (first compound 0.16 µM, partner dose 0.4 µM)  91.3%
17. Oc1cc(-c2nc(-c3ccccc3)[nH]c2-c2ccncc2)ccc1Cl + COc1cc(N2CCC(N3CCN(C)CC3)CC2)ccc1Nc1ncc(Cl)c(Nc2ccccc2S(=O)(=O)C(C)C)n1 [NVP-TAE684] (first compound 0.2 µM, partner dose 0.08 µM)  99.2%
18. N#Cc1c(O)c2c(-c3ccc(-c4ccccc4O)cc3)csc2[nH]c1=O + CC(C)CCN1c2nc(Nc3cc(F)c(O)c(F)c3)ncc2N(C)C(=O)C1C [BID1870] (first compound 2 µM, partner dose 0.2 µM)  99.2%
19. Cn1cc(/C=C2\C(=O)Nc3cccnc32)c2ccccc21 + CC(C)CCN1c2nc(Nc3cc(F)c(O)c(F)c3)ncc2N(C)C(=O)C1C [BID1870] (first compound 0.4 µM, partner dose 0.2 µM)  118%
20. COc1ccc2c(c1)CCC1C2CCC2(C)C(NCCCCCCN3C(=O)C=CC3=O)CCC12 (stereo not given) + Oc1cc(-c2nc(-c3ccccc3)[nH]c2-c2ccncc2)ccc1Cl [L779450] (first compound 0.4 µM, partner dose 0.2 µM)  121%
21. CCc1ccc(CCOc2ccc(CC3SC(=O)NC3=O)cc2)nc1 (stereo not given) [pioglitazone] + Cc1cc([N+](=O)[O-])ccc1NS(=O)(=O)c1cc(Cl)ccc1Cl [FH535] (first compound 2 µM, partner dose 1 µM)  132%
22. Oc1nc(-c2ccc(C(F)(F)F)cc2)nc2c1CSCC2 + CCCCCCCCCCCC1=C(O)C(=O)C=C(O)C1=O [Embelin] (first compound 2 µM, partner dose 1.2 µM)  155%
23. COc1ccc(-c2ccc3c(N4CCOCC4)nc(N4C[C@@H](C)O[C@@H](C)C4)nc3n2)cc1CO + O=c1cc(-c2cccc3c2Sc2ccccc2S3)oc(N2CCOCC2)c1 [KU55933] (first compound 0.02 µM, partner dose 1 µM)  158%
24. COC(=O)c1sccc1S(=O)(=O)Nc1ccc(Nc2ccccc2)cc1OC + CCCCCCCCCCCC1=C(O)C(=O)C=C(O)C1=O [Embelin] (first compound 1 µM, partner dose 1.2 µM)  159%
25. N#Cc1c(O)c2c(-c3ccc(-c4ccccc4O)cc3)csc2[nH]c1=O + COc1cc(N2CCC(N3CCN(C)CC3)CC2)ccc1Nc1ncc(Cl)c(Nc2ccccc2S(=O)(=O)C(C)C)n1 [NVP-TAE684] (first compound 2 µM, partner dose 0.08 µM)  178%
26. O=C(O)c1ccc(-c2c[nH]c3ncc(-c4ccccc4)cc23)cc1C1CCCC1 + Oc1nc(-c2ccc(C(F)(F)F)cc2)nc2c1CSCC2 [XAV939] (first compound 0.16 µM, partner dose 2 µM)  188%
27. N#Cc1c(O)c2c(-c3ccc(-c4ccccc4O)cc3)csc2[nH]c1=O + CCN(CC)CCCCNc1ncc2cc(-c3cc(OC)cc(OC)c3)c(NC(=O)NC(C)(C)C)nc2n1 [PD173074] (first compound 2 µM, partner dose 0.1 µM)  194%
28. CN(C)S(=O)(=O)c1ccc2c(c1)/C(=C/c1cc3c([nH]1)CCCC3)C(=O)N2 + COc1ccc2c(c1)CCC1C2CCC2(C)C(NCCCCCCN3C(=O)C=CC3=O)CCC12 [U73122] (first compound 0.4 µM, partner dose 0.4 µM)  206%
29. NCC(=O)Nc1ccc(-n2nc(C(F)(F)F)cc2-c2ccc3c(ccc4ccccc43)c2)cc1 + Oc1cc(-c2nc(-c3ccccc3)[nH]c2-c2ccncc2)ccc1Cl [L779450] (first compound 1 µM, partner dose 0.2 µM)  245%
30. CN(C)S(=O)(=O)c1ccc2c(c1)/C(=C/c1cc3c([nH]1)CCCC3)C(=O)N2 + CCN(CC)CCCCNc1ncc2cc(-c3cc(OC)cc(OC)c3)c(NC(=O)NC(C)(C)C)nc2n1 [PD173074] (first compound 0.4 µM, partner dose 0.1 µM)  252%
